{"source": "PubChem BioAssay AID1159578 | Peter MacCallum Cancer Centre | 2015", "purpose": "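siRNA pools altering how lymphatic endothelial cells close a scratch wound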 (primary screen)", "system": "human lymphatic endothelial cells", "knock-down reagent": "siRNA pool against human genes, 40 nM", "timing": "48 h after transfection", "detection": "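High-content imaging of dye-stained cells in a scratch assay measures filled wound area and nuclei per well; duplicate means given as ratio to mock and robust z-score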", "scale": "migration robust z-score: higher = faster migration into the scratch; nuclei per well: higher = more cells in the well", "hit rule": "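Pools averaging fewer than 3300 nuclei are never called; remaining pools count as changed when migration robust z lies outside -2 to 2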", "meaning of the calls": "active = migration changed; inactive = no migration change, or too few cells", "note": "Shown is one part, drawn at random, of about 18,000 deposited reagents. About 1,030 of them (5.7%) were called active. 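Inactive calls also include pools with fewer than 3300 nuclei, whose migration was not assessed.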 Raw values are not corrected between plates. Not all columns of the deposit are shown. Reagent sequences are not shown."}
The opening 2 entries, ahead of the listing:
{"target":"USB1","migration robust z-score":-1.8,"nuclei per well, duplicate mean":2867,"activity call":"inactive"}
{"target":"VSIG10","migration robust z-score":1.08,"nuclei per well, duplicate mean":6627,"activity call":"inactive"}

Main list, from the first entry:
{"target":"USB1","migration robust z-score":-1.8,"nuclei per well, duplicate mean":2867,"activity call":"inactive"}
{"target":"VSIG10","migration robust z-score":1.08,"nuclei per well, duplicate mean":6627,"activity call":"inactive"}
{"target":"KRT75","migration robust z-score":0.49,"nuclei per well, duplicate mean":4679,"activity call":"inactive"}
{"target":"KMT2B","migration robust z-score":1.22,"nuclei per well, duplicate mean":5314,"activity call":"inactive"}
{"target":"ASAH2","migration robust z-score":-0.57,"nuclei per well, duplicate mean":5102,"activity call":"inactive"}
{"target":"HSPB7","migration robust z-score":0.07,"nuclei per well, duplicate mean":5020,"activity call":"inactive"}
{"target":"U2AF1L4","migration robust z-score":-3.17,"nuclei per well, duplicate mean":5868,"activity call":"active"}
{"target":"RIMKLA","migration robust z-score":-1.66,"nuclei per well, duplicate mean":5300,"activity call":"inactive"}
{"target":"MFSD1","migration robust z-score":2.2,"nuclei per well, duplicate mean":6524,"activity call":"active"}
{"target":"LMLN","migration robust z-score":0.44,"nuclei per well, duplicate mean":5540,"activity call":"inactive"}
{"target":"PURA","migration robust z-score":-0.28,"nuclei per well, duplicate mean":5590,"activity call":"inactive"}
{"target":"GNAS","migration robust z-score":-2.77,"nuclei per well, duplicate mean":4392,"activity call":"active"}
{"target":"TP53","migration robust z-score":-0.6,"nuclei per well, duplicate mean":6818,"activity call":"inactive"}
{"target":"DUSP4","migration robust z-score":0.96,"nuclei per well, duplicate mean":6652,"activity call":"inactive"}
{"target":"DNPEP","migration robust z-score":-1.45,"nuclei per well, duplicate mean":4150,"activity call":"inactive"}
{"target":"ICAM1","migration robust z-score":0.75,"nuclei per well, duplicate mean":4444,"activity call":"inactive"}
{"target":"FAM187B","migration robust z-score":2.08,"nuclei per well, duplicate mean":7802,"activity call":"active"}
{"target":"SLC16A14","migration robust z-score":0.57,"nuclei per well, duplicate mean":6538,"activity call":"inactive"}
{"target":"RPL9","migration robust z-score":-1.86,"nuclei per well, duplicate mean":4146,"activity call":"inactive"}
{"target":"PKP2","migration robust z-score":1.31,"nuclei per well, duplicate mean":6636,"activity call":"inactive"}
{"target":"C9orf72","migration robust z-score":-1.46,"nuclei per well, duplicate mean":5588,"activity call":"inactive"}
